# The supplement of paper PMC3334620
# Over roughly 33,000 sequences, “E-score (-0.5 to 0.5)” has its median near -0.0014; the highest 2% begin near 0.25. This is one part of the list.
# Target: T1, Cad1 (UniProt P24813)
# T1 sequence: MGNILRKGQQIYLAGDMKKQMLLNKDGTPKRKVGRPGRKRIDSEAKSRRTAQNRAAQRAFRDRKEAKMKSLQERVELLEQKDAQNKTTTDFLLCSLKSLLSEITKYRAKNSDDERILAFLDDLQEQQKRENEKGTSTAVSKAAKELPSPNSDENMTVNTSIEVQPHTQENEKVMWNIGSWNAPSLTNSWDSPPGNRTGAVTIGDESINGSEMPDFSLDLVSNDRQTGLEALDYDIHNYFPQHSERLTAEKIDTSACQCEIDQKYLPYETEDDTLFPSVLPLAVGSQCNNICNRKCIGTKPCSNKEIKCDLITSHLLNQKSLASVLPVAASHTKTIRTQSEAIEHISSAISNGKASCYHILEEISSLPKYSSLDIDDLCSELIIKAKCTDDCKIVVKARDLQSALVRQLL
# Experiment: PBM E-score (8-mer binding enrichment) (E-score (-0.5 to 0.5)); higher = stronger / more preferred TF binding
# Conditions: protein concentration: 100 nM; construct: GST-full length
# Outline: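 Universal all-10-mer Agilent arrays, fresh or stripped once, were converted to double-stranded form by primer extension. GST-tagged yeast transcription factors from PURExpress in vitro transcription/translation, full-length or DNA-binding domain only, were applied at about 100-200 nM and detected with fluorescent anti-GST. After masliner normalisation, the Universal PBM Analysis Suite scored each ungapped eight-base word together with its reverse complement by E-score.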
row,Sequence,PBM E-score
1,ACTCAAAC,0.0288
2,GGCCCCCA,-0.385
3,CTACTAGC,0.0785
4,ACGACCCC,-0.0856
5,GATATATC,0.211
6,ACTGAGTA,0.0662
7,CTGGAATA,0.0836
8,GTCCACAC,0.128
9,AACTACGC,-0.046
10,AAGACCAG,-0.169
11,GTAGCAAC,-0.0716
12,CACGTTGG,-0.00928
13,ACGGCGCG,0.322
14,ATAGCCGC,0.0298
15,CGTCGACC,0.118
16,ACTCCATA,-0.191
17,CACCGCAG,-0.0791
18,CGTTTAGA,0.113
19,GAGCGCCA,-0.0152
20,GTCACCCA,-0.0308
21,CTTACACA,0.0675
22,AACAGGCA,-0.0352
23,ACACCCGG,-0.0646
24,AGTTGCAT,0.0768
25,GCCGGAAC,-0.0106

row,Sequence,PBM E-score
1,ACATTTCA,0.105
2,ATAGTTCA,0.0339
3,AATCCCGA,0.101
4,ATAATGCA,0.0116
5,CGCAGCAC,0.0114
6,AGAGCATA,-0.162
7,AATATGGG,-0.0935
8,CTTGCTCA,-0.185
9,ACATACAT,0.11
10,ACAGCAAA,0.107
11,CGTGGAAA,0.0874
12,ATTCTTGC,-0.00905
13,GCTCGGAC,0.0173
14,CGTCTGCC,-0.0942
15,CCCATGGG,0.0163
16,GCAGGTAC,-0.316
17,ACCATGGG,-0.198
18,GTATACTA,-0.146
19,GCCGCAAA,0.176
20,TATTAGAA,0.24
21,ACCCTAAA,0.0825
22,AGGAAAAA,0.0617
23,CGTAATGC,0.0737
24,TCAAGAAA,0.244
25,AATACCTA,0.168

row,Sequence,PBM E-score
1,AGAAGCAT,-0.134
2,ATTCGATA,0.0458
3,GGAAAAAA,0.0423
4,CAAGACGC,-0.0382
5,CACCAAGG,-0.0865
6,GAGAAAAA,0.125
7,TCCGGTAA,0.102
8,ATGCTACC,-0.0565
9,AAAGCGAT,0.182
10,CGCTACAG,-0.0564
11,ATATCGAA,0.187
12,AAGAAAAC,0.0993
13,ATACGGAC,-0.0428
14,ACGATCTC,0.00327
15,AAGGTTCT,-0.0896
16,CTATGTCC,-0.143
17,CCTGGTTC,-0.0941
18,CCGTGAAC,-0.0127
19,CGATTTTA,0.136
20,ACCCACAG,-0.113
21,CGCGAATA,0.145
22,CAGAAATC,0.0998
23,CAGACGTC,0.00703
24,ACACACCG,-0.00219
25,ATCAAGTC,-0.0562

row,Sequence,PBM E-score
1,AGTCTCTG,-0.137
2,CAGCGGGA,-0.0349
3,AGAAAATC,-0.0518
4,AGATCGAT,0.218
5,ACGATTTC,0.127
6,AAAAAGGA,-0.108
7,TGTTAAAA,0.0663
8,CCTGAAGC,-0.285
9,ATATTAAA,0.385
10,CGGTACCA,-0.0413
11,CTTTACGA,-0.137
12,CGAAGTAG,0.154
13,ACGCAGGC,-0.132
14,AAGTCCTG,-0.138
15,TAAGGTGA,-0.0279
16,ACGTTAGC,0.229
17,ATGTACTG,-0.0182
18,CAGTAAAC,0.0334
19,CCTAGGCA,-0.0995
20,ATTAATAC,0.199
21,ACAACGAC,0.0374
22,GAGGCCTC,-0.203
23,ACGGCTCC,-0.0818
24,CTCAGGTA,0.0682
25,ATTGCGAC,0.0407

row,Sequence,PBM E-score
1,CACTTCTC,-0.218
2,GCGGTGGA,-0.0242
3,AGGCGGAT,0.0121
4,CCTTACTC,-0.0289
5,CGAGTGCA,0.122
6,AGCTTATC,0.0337
7,CTCCCGAG,-0.128
8,CGGCTGAG,-0.117
9,GCATGTAC,-0.0209
10,CTCGTAAG,0.264
11,CATAGCAA,0.0676
12,GGTGAGCA,-0.146
13,ATGGTTTG,0.0111
14,GATTCCCC,-0.193
15,AACTGTTG,-0.108
16,GAAGTCGA,0.138
17,AGCCAAGC,-0.181
18,GCTCTCAA,0.00709
19,ATAGCAGA,0.0493
20,AAGCCGCA,0.021
21,CAAAACAG,0.0402
22,GAAAGGCC,-0.0684
23,GGGAACCA,-0.227
24,CTGGTACA,0.082
25,GGGGACTA,-0.264

row,Sequence,PBM E-score
1,ACCTGGAC,-0.0874
2,AGTAAAGA,0.167
3,AATTTATC,0.293
4,CAAGACAA,0.211
5,AAAACTAT,0.0232
6,CTAGATAC,0.139
7,AATCGGAG,0.0523
8,CTAGGTCC,0.0251
9,AGCCACCG,-0.0702
10,TGCTCCCA,-0.0911
11,GGGTGCCA,-0.0575
12,TTGTACAA,0.234
13,AGGTAAAA,-0.0024
14,AATCTTTG,0.0579
15,GCAGCTGA,0.0932
16,CTACAAAA,-0.0777
17,GCGACAGA,0.0524
18,GAACACCC,-0.101
19,ACTGGGAG,-0.204
20,CGGCGAGC,0.0619
21,GCGATAAA,0.191
22,AACGCGCT,0.0463
23,GCAAATTA,0.0483
24,CCACTGGC,-0.0488
25,AGGCACTG,-0.0317

# Nothing new here: an excerpt of the list.
row,Sequence,PBM E-score
13,GCTCGGAC,0.0173
14,CGTCTGCC,-0.0942
15,CCCATGGG,0.0163
16,GCAGGTAC,-0.316
17,ACCATGGG,-0.198

# Remaining list, next part:

row,Sequence,PBM E-score
1,CGAAGACA,-0.171
2,CCTGCAAG,-0.092
3,TGACGGAA,0.0247
4,AGAGCCCT,-0.122
5,TACTCTAA,0.0181
6,AGGGGTCA,-0.304
7,CATTCGTA,0.0457
8,ACATCATG,-0.124
9,GCTGACAC,0.247
10,AAGTTGCC,-0.0811
11,AAGGCTCA,-0.00772
12,ATGGCCCG,0.0172
13,AATAGTAA,0.203
14,AGCGGGGG,-0.381
15,CAGGCGAA,-0.133
16,ACTACACG,0.00852
17,ATCTTTTG,-0.0581
18,AGTTCTTC,0.0313
19,CGCTTCAA,0.00217
20,CCTTTCGA,-0.163
21,GCGCTTTA,0.0211
22,TCGGACCA,0.0901

# 7 entries picked at random from those above:
row,Sequence,PBM E-score
6,AGGGGTCA,-0.304
3,TGACGGAA,0.0247
18,AGTTCTTC,0.0313
4,AGAGCCCT,-0.122
17,ATCTTTTG,-0.0581
12,ATGGCCCG,0.0172
7,CATTCGTA,0.0457
